Results are given in words; binding and its absence hold for the method and conditions named. For some of these results: In cells and extracts the contact can be indirect. Some results given as binding are weak or reduced against the parent protein; the word gives no strength. For some of these results: Sequences can lack the tags named with a protein.

Chains of the proteins cited; added tags and fusions are not shown. Lines headed by an entry give the natural chain unless they say otherwise; changes in a name come on top.
UniProt P03372: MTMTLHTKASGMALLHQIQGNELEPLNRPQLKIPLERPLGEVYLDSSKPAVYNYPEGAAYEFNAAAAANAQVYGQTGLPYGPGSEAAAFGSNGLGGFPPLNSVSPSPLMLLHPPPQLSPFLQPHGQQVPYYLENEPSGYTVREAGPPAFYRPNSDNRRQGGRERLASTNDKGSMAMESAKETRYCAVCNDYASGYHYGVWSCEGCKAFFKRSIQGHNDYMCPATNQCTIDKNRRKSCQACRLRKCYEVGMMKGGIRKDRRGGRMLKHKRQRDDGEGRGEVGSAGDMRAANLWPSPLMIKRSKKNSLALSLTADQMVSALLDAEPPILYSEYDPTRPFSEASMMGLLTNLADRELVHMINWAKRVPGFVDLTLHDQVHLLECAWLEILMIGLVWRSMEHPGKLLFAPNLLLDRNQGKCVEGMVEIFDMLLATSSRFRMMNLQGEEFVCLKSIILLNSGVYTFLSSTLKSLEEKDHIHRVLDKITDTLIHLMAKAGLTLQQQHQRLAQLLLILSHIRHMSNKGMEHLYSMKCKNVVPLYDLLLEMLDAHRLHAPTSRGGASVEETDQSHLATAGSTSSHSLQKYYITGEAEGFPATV
UniProt Q13547: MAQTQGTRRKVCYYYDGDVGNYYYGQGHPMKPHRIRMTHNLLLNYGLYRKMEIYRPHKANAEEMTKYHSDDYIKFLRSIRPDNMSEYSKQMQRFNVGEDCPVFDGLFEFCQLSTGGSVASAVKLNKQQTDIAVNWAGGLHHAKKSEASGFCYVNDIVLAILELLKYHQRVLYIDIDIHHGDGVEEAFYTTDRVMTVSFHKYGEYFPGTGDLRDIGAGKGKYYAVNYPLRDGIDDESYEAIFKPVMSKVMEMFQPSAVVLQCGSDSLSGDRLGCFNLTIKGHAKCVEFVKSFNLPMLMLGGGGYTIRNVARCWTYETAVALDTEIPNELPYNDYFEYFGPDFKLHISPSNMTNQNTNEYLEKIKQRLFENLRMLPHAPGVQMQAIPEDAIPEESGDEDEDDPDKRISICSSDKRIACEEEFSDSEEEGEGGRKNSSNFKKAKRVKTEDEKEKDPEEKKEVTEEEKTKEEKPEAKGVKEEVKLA
UniProt Q92769: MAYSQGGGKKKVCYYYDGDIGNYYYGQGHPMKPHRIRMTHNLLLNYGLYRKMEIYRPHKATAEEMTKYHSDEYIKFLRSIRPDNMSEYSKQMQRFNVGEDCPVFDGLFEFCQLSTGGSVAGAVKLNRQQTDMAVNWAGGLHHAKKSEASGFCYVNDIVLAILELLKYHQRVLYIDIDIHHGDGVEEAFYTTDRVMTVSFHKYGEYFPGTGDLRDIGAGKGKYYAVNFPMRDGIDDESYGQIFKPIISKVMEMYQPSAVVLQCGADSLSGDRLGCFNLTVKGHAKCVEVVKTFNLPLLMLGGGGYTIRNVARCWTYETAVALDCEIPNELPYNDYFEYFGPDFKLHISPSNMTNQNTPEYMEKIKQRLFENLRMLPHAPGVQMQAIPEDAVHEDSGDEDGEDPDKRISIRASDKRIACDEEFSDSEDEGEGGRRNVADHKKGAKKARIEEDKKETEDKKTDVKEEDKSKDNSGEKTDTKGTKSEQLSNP

In assay [1] the target is T1, Flag-TCF21 (expressed in HEK 293T) (human) (UniProt O43680).
T1 sequence: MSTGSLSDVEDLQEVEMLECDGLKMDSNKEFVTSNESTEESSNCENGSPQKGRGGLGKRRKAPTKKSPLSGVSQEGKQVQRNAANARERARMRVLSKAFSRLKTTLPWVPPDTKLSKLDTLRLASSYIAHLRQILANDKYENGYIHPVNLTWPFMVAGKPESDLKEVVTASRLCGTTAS
Briefly: co-IP; HEK 293T cells co-transfected with two tagged proteins; IP by one tag (anti-GFP, anti-HA or anti-Flag), Western blot by the other tag; lysis in 50 mM Tris-HCl pH 7.4, 150 mM NaCl, 0.1% SDS, 1% NP-40, 0.5% sodium deoxycholate.

Assay [2] concerns the target T2, Flag-TCF21(K24R) (expressed in HEK 293T) (human) (UniProt O43680).
T2 sequence: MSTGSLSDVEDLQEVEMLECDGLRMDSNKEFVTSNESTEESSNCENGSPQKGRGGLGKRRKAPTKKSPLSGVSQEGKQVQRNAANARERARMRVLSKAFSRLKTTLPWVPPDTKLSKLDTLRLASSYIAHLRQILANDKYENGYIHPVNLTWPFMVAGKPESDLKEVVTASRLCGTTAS
The assay is described as above.

Assay [3] has as its target T3, HA-TCF21 (human) (UniProt O43680).
T3 sequence: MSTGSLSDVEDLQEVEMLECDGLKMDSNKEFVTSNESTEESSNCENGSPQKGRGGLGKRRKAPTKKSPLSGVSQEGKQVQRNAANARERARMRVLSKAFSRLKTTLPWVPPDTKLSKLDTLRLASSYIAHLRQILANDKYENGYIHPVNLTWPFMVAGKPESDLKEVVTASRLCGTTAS
The description is as above.

In assay [4] the target is T4, Flag-TCF21 (K24R) (expressed in MCF-7) (human) (UniProt O43680).
T4 sequence: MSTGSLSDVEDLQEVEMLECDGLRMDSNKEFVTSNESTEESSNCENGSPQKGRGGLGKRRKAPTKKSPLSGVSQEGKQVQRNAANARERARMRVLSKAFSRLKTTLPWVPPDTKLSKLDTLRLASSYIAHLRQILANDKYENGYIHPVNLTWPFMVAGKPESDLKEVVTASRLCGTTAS
Briefly: co-IP; re-IP: MCF-7 cells transfected with Flag-TCF21 or Flag-TCF21(K24R); IP with anti-ERα, re-IP with anti-Flag, Western blot with anti-HDAC1, anti-HDAC2, anti-Flag or anti-ERα.

The target of assay [5] is T5, Flag-TCF21 (expressed in MCF-7) (human) (UniProt O43680).
T5 sequence: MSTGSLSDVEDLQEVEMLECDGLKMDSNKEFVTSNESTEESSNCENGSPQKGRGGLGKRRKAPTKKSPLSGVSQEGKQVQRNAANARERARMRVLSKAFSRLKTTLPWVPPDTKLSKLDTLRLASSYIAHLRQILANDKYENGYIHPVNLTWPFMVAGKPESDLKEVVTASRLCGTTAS
Described as above.

For assay [6], the target named is estrogen receptor-α (ERα), endogenous (human (endogenous in MCF-7 and T47D)) (UniProt P03372). The assay is described as above.
The target of assay [7] is T6, transcription factor 21 (TCF21), endogenous (human (endogenous in MCF-7 and T47D)) (UniProt O43680).
T6 sequence: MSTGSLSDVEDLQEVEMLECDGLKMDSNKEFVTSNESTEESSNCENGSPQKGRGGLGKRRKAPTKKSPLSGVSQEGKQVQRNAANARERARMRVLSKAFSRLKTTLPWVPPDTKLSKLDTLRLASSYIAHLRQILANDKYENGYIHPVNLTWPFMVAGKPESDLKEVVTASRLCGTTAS
Briefly: co-IP; endogenous proteins in MCF-7 and T47D lysates; IP with anti-ERα and blot with anti-TCF21, or vice versa; anti-IgG as control; MCF-7 also with or without 17β-estradiol (E2; interaction weakened with E2); lysis in 50 mM Tris-HCl pH 7.4, 150 mM NaCl, 0.1% SDS, 1% NP-40, 0.5% sodium deoxycholate.

The target of assay [8] is T7, pBIND-TCF21 (human) (UniProt O43680).
T7 sequence: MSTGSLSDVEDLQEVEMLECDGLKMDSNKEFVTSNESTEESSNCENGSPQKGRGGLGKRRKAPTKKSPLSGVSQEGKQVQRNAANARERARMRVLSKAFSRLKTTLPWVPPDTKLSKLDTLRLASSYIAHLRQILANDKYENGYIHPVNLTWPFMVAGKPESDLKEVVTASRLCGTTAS
As to the kind of experiment: two-hybrid; CheckMate mammalian two-hybrid system in MCF-7 cells; pBIND-TCF21 with pACT-ERα, pG5-luc reporter, luciferase 36 h after transfection.

The target of assay [9] is estrogen receptor-α (ERα), endogenous (human (endogenous in MCF-7 and T47D)) (UniProt P03372). As to the kind of experiment: co-IP; endogenous proteins in MCF-7 and T47D lysates; IP with anti-ERα and blot with anti-TCF21, or vice versa; anti-IgG as control; MCF-7 also with or without 17β-estradiol (E2; interaction weakened with E2); lysis in 50 mM Tris-HCl pH 7.4, 150 mM NaCl, 0.1% SDS, 1% NP-40, 0.5% sodium deoxycholate.

Assay [10] deals with EGFP-ERα (UniProt P03372). As to the kind of experiment: co-IP; HEK 293T cells co-transfected with two tagged proteins; IP by one tag (anti-GFP, anti-HA or anti-Flag), Western blot by the other tag; lysis in 50 mM Tris-HCl pH 7.4, 150 mM NaCl, 0.1% SDS, 1% NP-40, 0.5% sodium deoxycholate.

For EGFP-ERα (from UniProt P03372 1-595), the binding entry in assay [1] and in [2] was “binds” in each case.

As for “Flag-tagged full-length ERα (from UniProt P03372 1-595)”, the binding entry in assay [3] is recorded as “binds”.

“HDAC1, endogenous (from UniProt Q13547 1-482) (enzyme)”: the binding result in assay [4] and in [5] was “binds” each time.

For the molecule “HDAC2, endogenous (from UniProt Q92769 1-488) (enzyme)”, the binding result in [4], in assay [5] and in [6] was “binds” in each case.

Consider “Myc-HDAC1 (from UniProt Q13547 1-482) (enzyme)”, for which the binding result in assay [1] was “binds”.

Consider “Myc-HDAC2 (from UniProt Q92769 1-488) (enzyme)”, for which the binding result in [1] is on record as “binds”.

Regarding “estrogen receptor-α (ERα), endogenous (from UniProt P03372 1-595)”, the binding entry in assay [7] is on record as “binds”.

Consider pACT-ERα (from UniProt P03372 1-595), for which the binding entry in assay [8] is given as “binds”.

B1: transcription factor 21 (TCF21), endogenous (protein, UniProt O43680 1-179)
chain: MSTGSLSDVEDLQEVEMLECDGLKMDSNKEFVTSNESTEESSNCENGSPQKGRGGLGKRRKAPTKKSPLSGVSQEGKQVQRNAANARERARMRVLSKAFSRLKTTLPWVPPDTKLSKLDTLRLASSYIAHLRQILANDKYENGYIHPVNLTWPFMVAGKPESDLKEVVTASRLCGTTAS
Consider B1, for which the binding result in [9] is listed as “binds”.

B2: Flag-TCF21 (expressed in MCF-7) (protein, UniProt O43680 1-179)
chain: MSTGSLSDVEDLQEVEMLECDGLKMDSNKEFVTSNESTEESSNCENGSPQKGRGGLGKRRKAPTKKSPLSGVSQEGKQVQRNAANARERARMRVLSKAFSRLKTTLPWVPPDTKLSKLDTLRLASSYIAHLRQILANDKYENGYIHPVNLTWPFMVAGKPESDLKEVVTASRLCGTTAS
On to B2, for which, in assay [6], the binding entry was “binds”.

B3: Flag-TCF21 (K24R) (expressed in MCF-7) (protein, UniProt O43680 1-179)
chain: MSTGSLSDVEDLQEVEMLECDGLRMDSNKEFVTSNESTEESSNCENGSPQKGRGGLGKRRKAPTKKSPLSGVSQEGKQVQRNAANARERARMRVLSKAFSRLKTTLPWVPPDTKLSKLDTLRLASSYIAHLRQILANDKYENGYIHPVNLTWPFMVAGKPESDLKEVVTASRLCGTTAS
With B3, the binding result in [6] is “binds”.

B4: Flag-TCF21 (expressed in HEK 293T) (protein, UniProt O43680 1-179)
chain: MSTGSLSDVEDLQEVEMLECDGLKMDSNKEFVTSNESTEESSNCENGSPQKGRGGLGKRRKAPTKKSPLSGVSQEGKQVQRNAANARERARMRVLSKAFSRLKTTLPWVPPDTKLSKLDTLRLASSYIAHLRQILANDKYENGYIHPVNLTWPFMVAGKPESDLKEVVTASRLCGTTAS
For the molecule B4, in assay [10], the binding result was “binds”.

(Values after publication PMC5041976.)
